Results reported in PubChem BioAssay AID2685 (National Center for Advancing Translational Sciences (NCATS), 2010).
The other results are listed elsewhere or left out. These are further read-outs of the screen, such as a control signal, another cell line or another target. No call is given for them. Compounds called inactive in the main read-out are mostly missing here. Words in brackets tell the shape of the fitted curve; partial curves, single points and poor fits give uncertain potencies.

Test: qHTS Assay for Lipid Storage Modulators in Drosophila S3 Cells;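 on cell number change: cells counted by Cell Tracker Red CMTPX staining in the red channel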
Details: BODIPY lipid droplet fluorescence, 18-24 h; for cell number change: measured here: cell count max response, cells fed with added oleic acid
Outline: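 Drosophila S3 cells got compounds at several concentrations plus oleic acid (400 uM solution). Laser-scanning cytometry with 488 nm excitation read lipid droplets at 500-530 nm and cells at 575-640 nm. Percent activity was relative to 20 uM Triacsin C.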

[1] = measured here: lipid fluorescence (Fed channel) AC50, cells fed with added oleic acid
[2] = measured here: cell number channel AC50, cells fed with added oleic acid

Compound	cell number change [%]	AC50 [1]	AC50 [2]
Cc1c(NC(=O)c2coc(=O)c(Br)c2)c(=O)n(-c2ccccc2)n1C	2.55	6.51 µM [rising, single point]	
CCOC(=O)C1CCCN(C(=S)NC(=O)c2cc(Br)ccc2Cl)C1 (stereo unspecified)		0.366 µM [falling, full curve]	
Cc1nc(-c2ccc(S(=O)(=O)Nc3cccc(Cl)c3)cc2)co1	70	0.00517 µM [rising, full curve, poor fit]	29.1 µM [rising, single point]
CCOC(=O)CC1COCCN1C(=O)c1cc(COc2ccc(F)cc2Cl)on1 (stereo unspecified)	-19.4	29.1 µM [falling, single point]	
CC(C)(C)c1ccc(C(=O)N2CCC(=O)N(C(COCc3ccccc3)Cc3ccccc3)CC2)cc1 (stereo unspecified)	-48.9	11.6 µM [falling, partial curve, poor fit]	16.4 µM [falling, single point]
Cc1cccc(NC(=O)C(=O)N/N=C/c2ccncc2)c1	23.3		0.116 µM [rising, full curve, poor fit]
Cc1ccc(SCCC(=O)N/N=C/c2ccccc2O)cc1	-55.1		16.4 µM [falling, partial curve]
COCCNC(=O)/C(C#N)=C/C=C/c1ccccc1	15		
O=C(NCc1ccccc1)C1CCCN(S(=O)(=O)c2ccc(F)cc2)C1 (stereo unspecified)		6.51 µM [rising, single point]	
C=CCn1c(N)c(C(=O)Nc2ccccc2)c2nc3ccccc3nc21		6.51 µM [rising, single point]	
COc1cccc(-c2c(C(=O)N/N=C/c3sccc3C)nnn2-c2nonc2N)c1	24.2		
COc1ccc(CCNC(=O)COc2ccc(C)nc2[N+](=O)[O-])cc1			0.092 µM [rising, full curve, poor fit]
COc1ccc(/C=C2\CCCc3c2nc2ccccc2c3C(=O)OCC(=O)c2c(N)n(C)c(=O)n(C)c2=O)cc1		2.91 µM [rising, full curve]	
CCn1nnc2c(=O)oc3ccccc3c21	-53.6	0.58 µM [falling, full curve]	0.92 µM [falling, full curve]
O=C(NCc1ccccn1)c1cc(-c2ccc(Cl)cc2)oc1C(F)(F)F	24.9		
Cc1cccc(C)c1NC(=O)CNC(=O)CNC(=O)Cc1cccc2ccccc12	19.7	5.17 µM [rising, full curve, poor fit]	
CCCn1c2ccccc2c2nnc(SCCN3CCOCC3)nc21	-18	18.4 µM [falling, single point]	
CO/N=C\CC(=O)Nc1ccc(Oc2ccccc2)cc1	14		
O=C(NCC1CCCO1)C1CC(=O)N(c2ccccc2)C1 (stereo unspecified)	-15.1	0.58 µM [falling, single point]	
O=C(Nc1nnc(S(=O)(=O)N2CCOCC2)s1)c1cccc(Br)c1	-8.26	11.6 µM [falling, partial curve, poor fit]	
CCCCc1cc(=O)oc2cc(C)cc(OC(C)C(=O)NCc3ccccn3)c12 (stereo unspecified)	1.79		

Compound	cell number change [%]	AC50 [1]	AC50 [2]
O=C(N/C(=C\c1ccc(-c2ccccc2)o1)C(=O)N1CCOCC1)c1ccccc1		0.116 µM [rising, full curve, poor fit]	
CC1Sc2ccc(S(=O)(=O)CCC(=O)N3CCN(c4ccccc4)CC3)cc2NC1=O (stereo unspecified)	11.6	29.1 µM [rising, single point]	
O=S(=O)(c1ccc(Br)cc1)N1CCC(c2nc3ccccc3[nH]2)CC1	19.2	0.116 µM [rising, full curve]	
Cc1ccc(C2(C)NC(=O)N(CC(=O)Nc3ccccc3C(=O)N3CCCCC3)C2=O)cc1 (stereo unspecified)		20.6 µM [falling, partial curve]	2.31 µM [falling, partial curve]
O=C1CC(N(C(=O)c2ccco2)c2ccc(F)cc2)C(=O)N1c1ccc(F)cc1 (stereo unspecified)	-102		18.4 µM [falling, single point]
COc1cccc(NC(=O)C(Cc2ccccc2)NC(=O)C2CCC(C)CC2)c1 (stereo unspecified)	13.3		
CCCSc1nsc(SCCC)c1C#N	-1.76	4.11 µM [rising, full curve, poor fit]	
COc1ccc(OC)c(NC(=O)CN2C(=O)NC(C)(c3ccc4c(c3)OCCO4)C2=O)c1 (stereo unspecified)	-6.27	6.51 µM [falling, single point]	
CCOC(=O)c1ccc(S(=O)(=O)NCC(C)(C)N2CCOCC2)cc1	28.2	25.9 µM [rising, single point]	
CCOC(=O)Nc1nc(-c2ccc(Cl)cc2Cl)cs1	43.4	10.3 µM [rising, partial curve]	7.31 µM [rising, partial curve]
Cc1ccc(N(Cc2ccc(C(=O)NC3CCCCC3)cc2)S(C)(=O)=O)cc1C			1.84 µM [rising, partial curve, poor fit]
CC1CCN(CC(CS(=O)(=O)c2ccc([N+](=O)[O-])cc2)N2CCC(C)CC2)CC1 (stereo unspecified)	-18.6	0.164 µM [falling, full curve, poor fit]	
COc1ccc(NC(=O)c2ccco2)cc1S(=O)(=O)N1CCCCC1	-35	8.2 µM [falling, partial curve]	14.6 µM [falling, single point]
COc1ccc(C(=O)Nc2c(C)ccc3nsnc23)cc1[N+](=O)[O-]	29.3	18.4 µM [rising, partial curve, poor fit]	
CN(CC(=O)Nc1ccc(Cl)c(S(=O)(=O)N(C)C)c1)Cc1ccccc1	19.2		
Cc1ccc(OCCNC(=O)c2ccccc2OCc2c(C)noc2C)cc1	6.89	6.51 µM [rising, partial curve, poor fit]	
O=c1cc(-c2ccc(O)cc2)oc2ccccc12	-11	2.06 µM [rising, partial curve]	
N#CC1=C(N)OC2=C(CC/C2=C\c2ccccc2Cl)C1c1ccccc1Cl (stereo unspecified)	-2.41	16.4 µM [falling, single point]	
CC(=O)C1=C(O)C(=O)N(c2ccc(O)cc2)C1c1ccc(Cl)cc1 (stereo unspecified)	-3.31		
Cc1ccc(OCC(=O)NC(C)c2ccc(Cl)c(Cl)c2)c([N+](=O)[O-])n1 (stereo unspecified)	-12.8	5.17 µM [rising, single point]	
Nc1nc(CSc2nc3ccccc3[nH]2)nc(N2CCOCC2)n1		0.058 µM [rising, full curve]	

Two compounds from above, showing only AC50 [1] and AC50 [2].
Compound,AC50 [1],AC50 [2]
CCOC(=O)Nc1nc(-c2ccc(Cl)cc2Cl)cs1,"10.3 µM [rising, partial curve]","7.31 µM [rising, partial curve]"
Cc1ccc(N(Cc2ccc(C(=O)NC3CCCCC3)cc2)S(C)(=O)=O)cc1C,,"1.84 µM [rising, partial curve, poor fit]"

Additional compounds follow:

Compound	cell number change [%]	AC50 [1]	AC50 [2]
ClC1=C(Cl)C(Cl)=C(Cl)C1=C/C=C/c1ccccc1	-11.8	16.4 µM [falling, partial curve]	
Cc1ccc(Cn2nnc3c(=O)[nH]c(C4CCCN(S(=O)(=O)c5ccccc5)C4)nc32)cc1 (stereo unspecified)	100		18.4 µM [rising, single point]
COc1ccc(/C=C/CN2CCC(n3nccc3NC(=O)C3CCCC3)CC2)cc1	16.6	2.59 µM [rising, full curve]	
CCOc1ccc2nc(NC(=O)Nc3cccs3)sc2c1	-29.3	0.651 µM [rising, full curve]	
CCC(Sc1ccc2nnc(CCNS(=O)(=O)c3ccc(OC)cc3)n2n1)C(=O)OC (stereo unspecified)	1.59		0.103 µM [falling, full curve, poor fit]
COc1cccc(-c2nc(CS(=O)(=O)CC(=O)N3CCc4ccccc43)c(C)o2)c1	0.227		
Cc1ccc(OCCC(=O)OC(C)C(=O)Nc2ccc(Cl)cn2)cc1 (stereo unspecified)	21.5		
O=C(c1cccs1)N1CCCC(N2CCN(c3ccc(F)cc3)CC2)C1 (stereo unspecified)	35.5	23.1 µM [falling, partial curve]	20.6 µM [rising, single point]
Cc1cccc(S(=O)(=O)C(C#N)c2nc3ccccc3nc2N2CCOCC2)c1 (stereo unspecified)	-12		
CS(=O)(=O)Nc1ccc(C(=O)Nc2ccc(S(=O)(=O)N3CCCCC3)cc2)cc1	-9.83	29.1 µM [falling, single point]	
O=[N+]([O-])c1ccc(Sc2ccccc2)nc1		29.1 µM [falling, single point]	6.51 µM [rising, single point]
CCn1nc(C)c(Br)c1C(=O)Sc1ccccc1Cl		18.4 µM [falling, single point]	
O=C(c1cnc2n(c1=O)CCS2)N(c1ccccc1)C1CCCCC1	-25.1	32.6 µM [falling, single point]	
Cc1cc(C)c(OCC(=O)Nc2ccc(N3CCOCC3)cc2)c(Br)c1	35.2	16.4 µM [rising, partial curve]	0.731 µM [rising, full curve, poor fit]
COc1ccc(CNC(=O)CCCSc2ccccc2)cc1	8.57	29.1 µM [rising, single point]	
O=C(OCc1ccc(Cl)cc1Cl)c1ccncc1	-38.5	29.1 µM [falling, partial curve, poor fit]	4.11 µM [falling, full curve, poor fit]
CN(C)c1cccc(C(=O)OCC(=O)Nc2nccs2)c1	27.6		
O=C(NCCCN1CCOCC1)c1ccc(CS(=O)(=O)c2ccc(Br)cc2)o1	-17.5	2.31 µM [rising, single point]	
Cc1cc(C)c(NC(=O)COC(=O)CCn2c(C)csc2=O)c(C)c1			4.11 µM [falling, single point]
O=C(COC(=O)/C=C/c1cccs1)Nc1ccc(F)cc1	-48.7	4.61 µM [falling, full curve, poor fit]	4.11 µM [falling, full curve]
